Results are given in words; binding and its absence hold for the method and conditions named. In cells and extracts the contact can be indirect.
Legend:
[1] = target: T1, FtsY (SRP receptor, SR), endogenous (E. coli (endogenous in E. coli K-12 MG1655 derivative)) (UniProt P10121); assay: co-IP; anti-Ffh or anti-FtsY antibodies on lysates of ΔftsH (control: Δσ^32) cells in exponential phase, 4°C 14 h, 20 mM Hepes-KOH, 150 mM NaCl, 10 mM EDTA, 10% glycerol, pH 7.5; immunoblot with anti-σ^32 and anti-σ^70
T1 sequence: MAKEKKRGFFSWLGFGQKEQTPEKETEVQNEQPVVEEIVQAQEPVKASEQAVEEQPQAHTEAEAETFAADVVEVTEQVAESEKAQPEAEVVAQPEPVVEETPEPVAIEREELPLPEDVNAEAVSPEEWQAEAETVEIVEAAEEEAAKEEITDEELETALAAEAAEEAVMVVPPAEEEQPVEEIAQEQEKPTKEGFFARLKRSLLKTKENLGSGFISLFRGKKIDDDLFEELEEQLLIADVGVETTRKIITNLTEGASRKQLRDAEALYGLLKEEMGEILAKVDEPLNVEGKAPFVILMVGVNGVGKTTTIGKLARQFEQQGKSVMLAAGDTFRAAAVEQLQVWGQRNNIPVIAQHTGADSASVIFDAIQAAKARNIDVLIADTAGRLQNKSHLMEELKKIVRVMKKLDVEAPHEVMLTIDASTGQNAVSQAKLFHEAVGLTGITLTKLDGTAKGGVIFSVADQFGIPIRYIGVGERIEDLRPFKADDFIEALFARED

Sequences of proteins named here, by UniProt entry; tags and fusion partners are left off.
UniProt P00579: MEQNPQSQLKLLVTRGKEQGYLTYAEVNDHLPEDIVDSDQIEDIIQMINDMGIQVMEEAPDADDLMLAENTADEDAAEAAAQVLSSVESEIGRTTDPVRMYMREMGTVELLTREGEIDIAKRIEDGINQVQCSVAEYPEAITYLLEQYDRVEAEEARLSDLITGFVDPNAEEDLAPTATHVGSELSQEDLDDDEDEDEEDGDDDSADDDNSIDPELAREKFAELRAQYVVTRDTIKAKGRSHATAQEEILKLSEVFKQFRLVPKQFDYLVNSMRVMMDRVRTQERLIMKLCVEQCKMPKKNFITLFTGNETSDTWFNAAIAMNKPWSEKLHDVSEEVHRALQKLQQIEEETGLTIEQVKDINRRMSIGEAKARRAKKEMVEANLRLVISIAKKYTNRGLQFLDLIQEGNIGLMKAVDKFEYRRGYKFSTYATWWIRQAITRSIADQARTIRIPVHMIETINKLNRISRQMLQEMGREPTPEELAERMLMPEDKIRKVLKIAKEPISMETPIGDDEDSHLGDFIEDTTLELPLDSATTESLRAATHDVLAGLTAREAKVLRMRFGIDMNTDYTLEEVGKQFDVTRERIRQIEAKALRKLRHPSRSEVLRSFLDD

[2] = target: T2, Ffh (protein component of the signal recognition particle, SRP), endogenous (E. coli (endogenous in E. coli K-12 MG1655 derivative)) (UniProt P0AGD7); assay: as above
T2 sequence: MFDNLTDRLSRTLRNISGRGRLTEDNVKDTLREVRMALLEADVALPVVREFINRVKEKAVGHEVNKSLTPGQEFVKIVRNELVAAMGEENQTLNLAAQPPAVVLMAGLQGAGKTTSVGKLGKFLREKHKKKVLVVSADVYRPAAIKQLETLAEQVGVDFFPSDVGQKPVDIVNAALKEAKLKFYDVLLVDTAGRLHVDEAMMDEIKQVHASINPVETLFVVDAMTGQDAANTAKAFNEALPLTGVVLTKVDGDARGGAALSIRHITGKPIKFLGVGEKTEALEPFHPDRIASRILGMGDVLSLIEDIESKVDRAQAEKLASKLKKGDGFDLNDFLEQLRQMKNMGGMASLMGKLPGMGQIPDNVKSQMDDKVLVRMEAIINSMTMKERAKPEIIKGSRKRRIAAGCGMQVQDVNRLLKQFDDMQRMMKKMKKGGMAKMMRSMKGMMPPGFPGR

σ^70, endogenous (from UniProt P00579 1-613)
binding [1]: no binding
binding [2]: no binding

Source: PMC3866087
